{"source": "PubChem BioAssay AID686938 (Drosophila RNAi Screening Center, 2013)", "test": "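Fly genes required for calcium entry once internal stores are emptied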 (primary screen)", "system": "Drosophila S2R+ cells", "reagent": "long dsRNA against Drosophila genes, about 0.25 µg dsRNA per well, roughly 10,000 cells", "timing": "5 days of knock-down before the calcium assay", "conditions": "thapsigargin (SERCA pump blocker) to empty calcium stores; entry signal taken 4 min after adding it", "measurement": "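Duplicate raw fluo-4 intensities per well from a plate reader, at rest and four minutes after thapsigargin emptied calcium stores; entry-to-rest ratio filled for only some wells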", "scale": "calcium entry signal: higher = stronger calcium signal after store depletion; resting calcium signal: higher = higher resting calcium signal", "units": "calcium entry signal in fluorescence units; resting calcium signal in fluorescence units", "call rule": "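Hit if the duplicate-averaged plate z-score for entry over resting signal is under −3; wells with weak total dye signal (Fmax z < −2) or more than 5 off-targets removed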", "meaning of the calls": "active = strongly reduced calcium entry; inactive = no strong reduction", "note": "The deposit covers about 23,000 reagents; below is an unselected part of those that have a named target and a result. In the full data, 75 (0.33%) are marked active. 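Raw plate signals without normalisation; calls rest on plate z-scores that were not deposited; ratio present for only 364 wells.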 A plus sign joins genes that one reagent is predicted to hit. The record does not give: the dose of the treatment."}
{"gene knocked down":"CG5217","dsRNA":"DRSC15740","calcium entry signal, replicate 1":3.61e7,"calcium entry signal, replicate 2":2.94e7,"resting calcium signal, replicate 1":3.87e7,"resting calcium signal, replicate 2":1.26e7,"Call":"inactive"}
{"gene knocked down":"CG14965","dsRNA":"DRSC08424","calcium entry signal, replicate 1":3.99e7,"calcium entry signal, replicate 2":2.49e7,"resting calcium signal, replicate 1":2.70e7,"resting calcium signal, replicate 2":1.14e7,"Call":"inactive"}
{"gene knocked down":"Or22a (Odorant receptor 22a)","dsRNA":"DRSC00764","calcium entry signal, replicate 1":3.84e7,"calcium entry signal, replicate 2":5.83e7,"resting calcium signal, replicate 1":1.89e7,"resting calcium signal, replicate 2":2.26e7,"Call":"inactive"}
{"gene knocked down":"Aladin","dsRNA":"DRSC18121","calcium entry signal, replicate 1":3.72e7,"calcium entry signal, replicate 2":3.88e7,"resting calcium signal, replicate 1":1.80e7,"resting calcium signal, replicate 2":1.84e7,"Call":"inactive"}
{"gene knocked down":"spel1 (spellchecker1)","dsRNA":"DRSC03617","calcium entry signal, replicate 1":5.18e7,"calcium entry signal, replicate 2":3.72e7,"resting calcium signal, replicate 1":2.31e7,"resting calcium signal, replicate 2":1.66e7,"Call":"inactive"}
{"gene knocked down":"CG7065","dsRNA":"DRSC18420","calcium entry signal, replicate 1":4.38e7,"calcium entry signal, replicate 2":4.30e7,"resting calcium signal, replicate 1":2.08e7,"resting calcium signal, replicate 2":1.99e7,"Call":"inactive"}
{"gene knocked down":"CG17646","dsRNA":"DRSC00507","calcium entry signal, replicate 1":4.91e7,"resting calcium signal, replicate 1":2.73e7,"Call":"inactive"}
{"gene knocked down":"CG12594","dsRNA":"DRSC14532","calcium entry signal, replicate 1":4.10e7,"calcium entry signal, replicate 2":3.45e7,"resting calcium signal, replicate 1":2.07e7,"resting calcium signal, replicate 2":1.76e7,"Call":"inactive"}
{"gene knocked down":"CG8441","dsRNA":"DRSC07180","calcium entry signal, replicate 1":3.58e7,"calcium entry signal, replicate 2":3.34e7,"resting calcium signal, replicate 1":1.64e7,"resting calcium signal, replicate 2":1.61e7,"Call":"inactive"}
{"gene knocked down":"CG7945","dsRNA":"DRSC10934","calcium entry signal, replicate 1":4.07e7,"calcium entry signal, replicate 2":4.57e7,"resting calcium signal, replicate 1":1.88e7,"resting calcium signal, replicate 2":3.23e7,"Call":"inactive"}
{"gene knocked down":"Jon65Aii (Jonah 65Aii)","dsRNA":"DRSC10665","calcium entry signal, replicate 1":2.54e7,"calcium entry signal, replicate 2":4.04e7,"resting calcium signal, replicate 1":1.19e7,"resting calcium signal, replicate 2":1.77e7,"Call":"inactive"}
{"gene knocked down":"CG10332 (retired record) + IM18","dsRNA":"DRSC04064","calcium entry signal, replicate 1":3.88e7,"calcium entry signal, replicate 2":5.02e7,"resting calcium signal, replicate 1":1.94e7,"resting calcium signal, replicate 2":2.19e7,"Call":"inactive"}
{"gene knocked down":"CG30088","dsRNA":"DRSC21764","calcium entry signal, replicate 1":3.28e7,"calcium entry signal, replicate 2":3.82e7,"resting calcium signal, replicate 1":1.79e7,"resting calcium signal, replicate 2":1.78e7,"Call":"inactive"}
{"gene knocked down":"CG31100","dsRNA":"DRSC14453","calcium entry signal, replicate 1":4.99e7,"calcium entry signal, replicate 2":3.65e7,"resting calcium signal, replicate 1":2.37e7,"resting calcium signal, replicate 2":1.75e7,"Call":"inactive"}
{"gene knocked down":"CG31100","dsRNA":"DRSC14455","calcium entry signal, replicate 1":5.23e7,"calcium entry signal, replicate 2":3.60e7,"resting calcium signal, replicate 1":2.41e7,"resting calcium signal, replicate 2":1.59e7,"Call":"inactive"}
{"gene knocked down":"subdued","dsRNA":"DRSC15137","calcium entry signal, replicate 1":3.19e7,"calcium entry signal, replicate 2":2.74e7,"resting calcium signal, replicate 1":1.50e7,"resting calcium signal, replicate 2":1.36e7,"Call":"inactive"}
{"gene knocked down":"jet (jetlag)","dsRNA":"DRSC03116","calcium entry signal, replicate 1":3.86e7,"resting calcium signal, replicate 1":1.86e7,"Call":"inactive"}
{"gene knocked down":"CG7079","dsRNA":"DRSC16192","calcium entry signal, replicate 1":4.33e7,"calcium entry signal, replicate 2":3.97e7,"resting calcium signal, replicate 1":5.79e7,"resting calcium signal, replicate 2":1.83e7,"Call":"inactive"}
{"gene knocked down":"CG14342","dsRNA":"DRSC00372","calcium entry signal, replicate 1":3.36e7,"calcium entry signal, replicate 2":4.49e7,"resting calcium signal, replicate 1":1.75e7,"resting calcium signal, replicate 2":2.09e7,"Call":"inactive"}
{"gene knocked down":"ppk15 (pickpocket 15)","dsRNA":"DRSC14733","calcium entry signal, replicate 1":2.30e7,"calcium entry signal, replicate 2":4.47e7,"resting calcium signal, replicate 1":1.43e7,"resting calcium signal, replicate 2":2.23e7,"Call":"inactive"}
{"gene knocked down":"Osi10b (Osiris 10b)","dsRNA":"DRSC12279","calcium entry signal, replicate 1":4.61e7,"calcium entry signal, replicate 2":3.44e7,"resting calcium signal, replicate 1":2.18e7,"resting calcium signal, replicate 2":1.61e7,"Call":"inactive"}
{"gene knocked down":"CG30156","dsRNA":"DRSC04959","calcium entry signal, replicate 1":1.75e7,"calcium entry signal, replicate 2":2.63e7,"resting calcium signal, replicate 1":9.58e6,"resting calcium signal, replicate 2":1.18e7,"Call":"inactive"}
{"gene knocked down":"ena (enabled)","dsRNA":"DRSC05779","calcium entry signal, replicate 1":3.95e7,"calcium entry signal, replicate 2":3.28e7,"resting calcium signal, replicate 1":1.90e7,"resting calcium signal, replicate 2":1.82e7,"Call":"inactive"}
{"gene knocked down":"ena (enabled)","dsRNA":"DRSC07610","calcium entry signal, replicate 1":3.14e7,"calcium entry signal, replicate 2":2.98e7,"resting calcium signal, replicate 1":1.43e7,"resting calcium signal, replicate 2":1.43e7,"Call":"inactive"}
{"gene knocked down":"CDase (Ceramidase)","dsRNA":"DRSC14932","calcium entry signal, replicate 1":2.98e7,"calcium entry signal, replicate 2":4.12e7,"resting calcium signal, replicate 1":1.63e7,"resting calcium signal, replicate 2":1.90e7,"Call":"inactive"}
{"gene knocked down":"CG13855","dsRNA":"DRSC14705","calcium entry signal, replicate 1":4.26e7,"calcium entry signal, replicate 2":4.61e7,"resting calcium signal, replicate 1":5.15e7,"resting calcium signal, replicate 2":1.98e7,"Call":"inactive"}
{"gene knocked down":"CG43331","dsRNA":"DRSC11671","calcium entry signal, replicate 1":3.08e7,"calcium entry signal, replicate 2":5.02e7,"resting calcium signal, replicate 1":1.59e7,"resting calcium signal, replicate 2":2.31e7,"Call":"inactive"}

Reprinted from above (4 entries):
{"gene knocked down":"CG7065","dsRNA":"DRSC18420","calcium entry signal, replicate 1":4.38e7,"calcium entry signal, replicate 2":4.30e7,"resting calcium signal, replicate 1":2.08e7,"resting calcium signal, replicate 2":1.99e7,"Call":"inactive"}
{"gene knocked down":"CG17646","dsRNA":"DRSC00507","calcium entry signal, replicate 1":4.91e7,"resting calcium signal, replicate 1":2.73e7,"Call":"inactive"}
{"gene knocked down":"CG12594","dsRNA":"DRSC14532","calcium entry signal, replicate 1":4.10e7,"calcium entry signal, replicate 2":3.45e7,"resting calcium signal, replicate 1":2.07e7,"resting calcium signal, replicate 2":1.76e7,"Call":"inactive"}
{"gene knocked down":"CG8441","dsRNA":"DRSC07180","calcium entry signal, replicate 1":3.58e7,"calcium entry signal, replicate 2":3.34e7,"resting calcium signal, replicate 1":1.64e7,"resting calcium signal, replicate 2":1.61e7,"Call":"inactive"}
